The record followed here is PMC9571250.

Amino acid sequences for entries named in this document (tags omitted). Residues count along the entry.
UniProt Q13308, 31-1070: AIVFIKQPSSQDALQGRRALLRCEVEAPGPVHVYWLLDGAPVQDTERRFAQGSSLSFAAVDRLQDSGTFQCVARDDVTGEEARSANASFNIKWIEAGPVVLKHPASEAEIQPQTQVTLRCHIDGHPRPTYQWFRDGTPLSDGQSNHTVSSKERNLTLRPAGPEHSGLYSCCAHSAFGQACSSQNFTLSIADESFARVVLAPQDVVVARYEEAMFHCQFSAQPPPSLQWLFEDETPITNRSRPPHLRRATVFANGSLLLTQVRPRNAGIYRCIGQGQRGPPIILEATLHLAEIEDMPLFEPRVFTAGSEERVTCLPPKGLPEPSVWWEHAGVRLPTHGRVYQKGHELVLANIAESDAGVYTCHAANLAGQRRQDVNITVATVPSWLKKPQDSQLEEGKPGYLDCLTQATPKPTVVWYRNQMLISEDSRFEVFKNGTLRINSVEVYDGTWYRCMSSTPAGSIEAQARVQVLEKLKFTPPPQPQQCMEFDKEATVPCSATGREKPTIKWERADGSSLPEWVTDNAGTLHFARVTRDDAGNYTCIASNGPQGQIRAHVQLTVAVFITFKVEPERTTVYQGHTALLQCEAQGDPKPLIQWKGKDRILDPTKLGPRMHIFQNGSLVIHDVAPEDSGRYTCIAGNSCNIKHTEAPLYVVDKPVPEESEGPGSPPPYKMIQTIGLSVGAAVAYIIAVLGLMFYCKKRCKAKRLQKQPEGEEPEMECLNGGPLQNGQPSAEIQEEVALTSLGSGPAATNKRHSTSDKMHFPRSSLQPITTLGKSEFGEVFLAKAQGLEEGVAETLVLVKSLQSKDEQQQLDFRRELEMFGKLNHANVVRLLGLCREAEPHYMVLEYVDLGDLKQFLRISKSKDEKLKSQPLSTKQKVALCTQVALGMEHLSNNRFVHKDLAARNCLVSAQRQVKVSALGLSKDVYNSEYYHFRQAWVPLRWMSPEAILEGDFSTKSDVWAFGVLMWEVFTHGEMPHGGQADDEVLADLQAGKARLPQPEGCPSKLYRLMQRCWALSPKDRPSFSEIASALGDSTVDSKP

The exact form of at least one protein or probe is not confirmed. At least one result comes from cells or an extract, where the contact may be indirect.

The series deals with protein tyrosine kinase 7 (PTK7), on HCT116 cells (UniProt Q13308). The experiment in a line: flow cytometry. As to conditions: Flow cytometry with HCT116 cells, protein on the cell surface, label: 3'-Cy5, folded or branched DNA. For orientation: In flow cytometry, cells or beads pass a laser one at a time.

Regarding “ATCTAACTGCTGCGCCGCCGGGAAAATACTGTACGGTTAGA [Sgc8]”, the binding result (positive control, much stronger than random Cy5 library) is listed as “binds”.

For the sequence “TTTTTTTTATCTAACTGCTGCGCCGCCGGGAAAATACTGTACGGTTAGA [Sgc8-P]”, the binding result (fluorescence comparable to Sgc8, much stronger than random Cy5 library, 5'-terminal phenolic element P (4-hydroxybenzamide of 3-aminopropane-1,2-diol, non-nucleoside)) is “binds”.
